The list shows a part of the results.
Legend:
Experiment in all cases: log2 fold change, soluble protein after heating vs DMSO (PISA); higher = thermal stabilisation; K562 cells, 10 uM, 30 min; active = over 0.2 and 3.5 SD of the protein, either way, in both replicates (recomputed)
[1] = compound: COC1=CC=C(C=C1)CN2C=CC3=C2C=C(C=C3)C(=O)NO
Method in brief: (§1)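 Aliquots of K562 cells (2×10^6 cells/mL) treated with 10 μM compound for 30 min were heated for 3 min over 48°C-58°C. After pooling and extraction in PBS with 0.5% NP-40 at 4°C, soluble protein from a 21,000xg, 90 min spin was quantified by TMTpro 16plex LC-MS/MS with channel sums equalised. Thermal stability is expressed against control samples, from duplicates, as a log2 fold change.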

By UniProt entry, the sequences of proteins in these tests, tags left out. Where a name states a change or a piece, a line headed by the entry shows the natural chain unless it says otherwise.
UniProt P11021: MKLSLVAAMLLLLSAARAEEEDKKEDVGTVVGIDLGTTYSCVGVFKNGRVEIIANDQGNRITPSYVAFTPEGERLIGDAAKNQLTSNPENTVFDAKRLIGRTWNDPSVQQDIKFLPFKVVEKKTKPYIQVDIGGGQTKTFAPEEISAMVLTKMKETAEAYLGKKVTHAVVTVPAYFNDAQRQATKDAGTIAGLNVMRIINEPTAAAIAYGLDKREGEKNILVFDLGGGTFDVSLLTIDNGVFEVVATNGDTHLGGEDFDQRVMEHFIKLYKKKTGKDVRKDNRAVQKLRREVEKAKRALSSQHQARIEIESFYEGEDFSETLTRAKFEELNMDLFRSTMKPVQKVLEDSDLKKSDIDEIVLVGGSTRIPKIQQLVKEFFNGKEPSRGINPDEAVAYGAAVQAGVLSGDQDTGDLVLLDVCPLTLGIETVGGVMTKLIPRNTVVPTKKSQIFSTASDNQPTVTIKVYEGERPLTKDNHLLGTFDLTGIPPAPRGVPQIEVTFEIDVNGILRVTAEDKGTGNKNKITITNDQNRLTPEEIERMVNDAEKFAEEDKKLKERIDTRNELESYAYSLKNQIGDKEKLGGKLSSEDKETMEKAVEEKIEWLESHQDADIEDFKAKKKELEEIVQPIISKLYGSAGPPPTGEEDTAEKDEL
UniProt Q2TB90: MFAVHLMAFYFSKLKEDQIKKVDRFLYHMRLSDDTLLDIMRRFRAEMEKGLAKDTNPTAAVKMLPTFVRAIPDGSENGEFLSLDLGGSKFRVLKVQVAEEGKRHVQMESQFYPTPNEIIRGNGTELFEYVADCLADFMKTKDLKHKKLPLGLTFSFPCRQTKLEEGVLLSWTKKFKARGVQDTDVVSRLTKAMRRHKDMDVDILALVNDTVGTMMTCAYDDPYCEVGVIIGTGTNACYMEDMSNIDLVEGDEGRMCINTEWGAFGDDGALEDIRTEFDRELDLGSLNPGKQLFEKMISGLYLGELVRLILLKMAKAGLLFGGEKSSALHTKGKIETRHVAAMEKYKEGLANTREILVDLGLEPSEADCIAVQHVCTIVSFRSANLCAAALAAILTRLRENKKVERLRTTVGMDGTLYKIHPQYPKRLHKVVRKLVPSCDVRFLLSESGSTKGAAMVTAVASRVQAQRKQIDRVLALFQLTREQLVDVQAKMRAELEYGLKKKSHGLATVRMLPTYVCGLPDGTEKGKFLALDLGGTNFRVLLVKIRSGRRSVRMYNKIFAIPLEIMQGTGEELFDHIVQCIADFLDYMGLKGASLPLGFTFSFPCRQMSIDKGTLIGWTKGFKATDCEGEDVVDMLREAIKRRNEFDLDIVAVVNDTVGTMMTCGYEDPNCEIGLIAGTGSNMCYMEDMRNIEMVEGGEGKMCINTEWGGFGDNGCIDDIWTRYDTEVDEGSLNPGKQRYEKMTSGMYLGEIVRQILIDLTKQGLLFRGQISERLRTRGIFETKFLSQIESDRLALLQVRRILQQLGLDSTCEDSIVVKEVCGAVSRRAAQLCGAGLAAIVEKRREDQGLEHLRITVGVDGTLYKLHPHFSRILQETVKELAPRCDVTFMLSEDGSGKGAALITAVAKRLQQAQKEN
UniProt Q9BTY7: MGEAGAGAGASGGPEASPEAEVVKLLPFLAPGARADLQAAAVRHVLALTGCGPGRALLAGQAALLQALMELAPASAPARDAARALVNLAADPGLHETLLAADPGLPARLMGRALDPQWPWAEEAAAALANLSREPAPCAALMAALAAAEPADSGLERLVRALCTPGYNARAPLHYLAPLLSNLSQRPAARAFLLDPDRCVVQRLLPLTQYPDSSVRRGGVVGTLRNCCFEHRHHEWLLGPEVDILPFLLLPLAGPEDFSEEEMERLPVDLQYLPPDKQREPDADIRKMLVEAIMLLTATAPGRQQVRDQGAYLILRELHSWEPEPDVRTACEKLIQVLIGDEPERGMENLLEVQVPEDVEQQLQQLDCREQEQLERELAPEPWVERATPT
UniProt P0DMV8, whole entry, looked up: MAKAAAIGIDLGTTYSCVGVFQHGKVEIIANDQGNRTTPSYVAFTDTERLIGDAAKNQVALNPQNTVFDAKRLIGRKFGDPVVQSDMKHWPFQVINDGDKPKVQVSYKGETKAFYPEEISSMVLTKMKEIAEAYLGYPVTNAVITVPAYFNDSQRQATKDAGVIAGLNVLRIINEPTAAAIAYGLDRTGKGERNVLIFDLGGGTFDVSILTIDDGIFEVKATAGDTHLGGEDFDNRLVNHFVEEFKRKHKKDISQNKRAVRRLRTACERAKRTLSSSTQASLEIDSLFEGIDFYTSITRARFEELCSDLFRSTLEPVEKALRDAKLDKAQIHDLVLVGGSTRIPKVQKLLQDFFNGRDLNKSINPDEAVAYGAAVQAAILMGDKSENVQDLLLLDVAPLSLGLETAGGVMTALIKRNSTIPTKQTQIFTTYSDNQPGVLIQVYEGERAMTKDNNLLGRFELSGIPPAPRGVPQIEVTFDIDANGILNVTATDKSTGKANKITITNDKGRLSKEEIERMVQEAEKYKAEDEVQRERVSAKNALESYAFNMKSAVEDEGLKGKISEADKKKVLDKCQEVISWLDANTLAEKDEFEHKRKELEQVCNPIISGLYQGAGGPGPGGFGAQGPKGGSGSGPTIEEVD
UniProt Q53T59: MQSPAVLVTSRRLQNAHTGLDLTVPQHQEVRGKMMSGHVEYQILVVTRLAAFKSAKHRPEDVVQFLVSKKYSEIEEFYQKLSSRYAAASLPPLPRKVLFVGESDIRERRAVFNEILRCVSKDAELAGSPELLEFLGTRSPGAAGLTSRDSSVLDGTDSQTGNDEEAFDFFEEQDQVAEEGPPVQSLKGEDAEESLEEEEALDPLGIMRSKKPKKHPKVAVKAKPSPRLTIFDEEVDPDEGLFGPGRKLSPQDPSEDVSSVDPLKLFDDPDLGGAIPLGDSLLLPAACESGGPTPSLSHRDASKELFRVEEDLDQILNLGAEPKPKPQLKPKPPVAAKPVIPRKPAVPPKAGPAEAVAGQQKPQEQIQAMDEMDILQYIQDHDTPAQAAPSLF
UniProt P23327: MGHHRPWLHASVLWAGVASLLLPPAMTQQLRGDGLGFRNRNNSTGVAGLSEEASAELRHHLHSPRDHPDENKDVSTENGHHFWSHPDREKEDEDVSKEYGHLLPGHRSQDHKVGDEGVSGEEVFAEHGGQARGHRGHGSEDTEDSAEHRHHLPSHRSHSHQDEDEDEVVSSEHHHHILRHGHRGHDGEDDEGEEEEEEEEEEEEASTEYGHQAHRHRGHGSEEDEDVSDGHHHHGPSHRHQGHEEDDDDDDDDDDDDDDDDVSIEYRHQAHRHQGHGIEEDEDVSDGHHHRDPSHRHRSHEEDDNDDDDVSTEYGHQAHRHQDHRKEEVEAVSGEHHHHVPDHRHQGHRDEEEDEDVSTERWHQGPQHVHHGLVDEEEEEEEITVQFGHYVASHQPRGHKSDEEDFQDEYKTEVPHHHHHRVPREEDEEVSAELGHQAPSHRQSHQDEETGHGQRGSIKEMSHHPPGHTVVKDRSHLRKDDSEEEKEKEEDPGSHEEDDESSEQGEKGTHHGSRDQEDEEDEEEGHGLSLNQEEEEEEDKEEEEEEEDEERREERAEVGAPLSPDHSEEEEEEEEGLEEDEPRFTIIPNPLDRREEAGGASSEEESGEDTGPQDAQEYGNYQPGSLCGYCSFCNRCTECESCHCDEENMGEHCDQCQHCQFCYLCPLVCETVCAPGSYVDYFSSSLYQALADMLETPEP
UniProt H0YH80: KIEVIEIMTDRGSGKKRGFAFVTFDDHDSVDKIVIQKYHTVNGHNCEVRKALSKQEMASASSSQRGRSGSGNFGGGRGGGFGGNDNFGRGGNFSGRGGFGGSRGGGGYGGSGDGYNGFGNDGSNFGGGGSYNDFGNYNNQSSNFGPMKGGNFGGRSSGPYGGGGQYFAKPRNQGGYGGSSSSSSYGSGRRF
UniProt P14866: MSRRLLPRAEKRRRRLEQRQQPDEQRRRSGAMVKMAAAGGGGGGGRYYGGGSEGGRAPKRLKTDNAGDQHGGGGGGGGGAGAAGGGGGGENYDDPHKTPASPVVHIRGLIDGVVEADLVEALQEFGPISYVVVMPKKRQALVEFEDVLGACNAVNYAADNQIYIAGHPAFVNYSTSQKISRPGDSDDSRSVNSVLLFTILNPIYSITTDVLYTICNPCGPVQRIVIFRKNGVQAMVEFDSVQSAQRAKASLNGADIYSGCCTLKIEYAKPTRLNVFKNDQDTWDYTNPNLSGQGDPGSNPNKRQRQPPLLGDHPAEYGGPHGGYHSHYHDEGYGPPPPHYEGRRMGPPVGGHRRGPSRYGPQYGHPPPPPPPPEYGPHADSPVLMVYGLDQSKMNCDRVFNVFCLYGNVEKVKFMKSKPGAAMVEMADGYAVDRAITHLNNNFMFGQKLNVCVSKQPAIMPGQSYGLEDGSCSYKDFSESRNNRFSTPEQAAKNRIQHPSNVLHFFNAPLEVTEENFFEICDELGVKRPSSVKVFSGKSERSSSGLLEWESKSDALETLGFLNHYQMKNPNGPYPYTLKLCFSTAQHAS
UniProt O60725, whole entry, looked up: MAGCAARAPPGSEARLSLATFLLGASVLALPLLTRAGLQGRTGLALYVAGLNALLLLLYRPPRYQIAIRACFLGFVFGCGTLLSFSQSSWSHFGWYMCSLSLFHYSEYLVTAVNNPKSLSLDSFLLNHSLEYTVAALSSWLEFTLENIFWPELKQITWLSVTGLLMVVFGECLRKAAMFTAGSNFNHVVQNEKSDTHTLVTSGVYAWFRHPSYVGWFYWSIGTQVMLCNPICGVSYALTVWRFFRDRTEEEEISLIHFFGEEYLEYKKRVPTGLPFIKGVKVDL
UniProt O43390: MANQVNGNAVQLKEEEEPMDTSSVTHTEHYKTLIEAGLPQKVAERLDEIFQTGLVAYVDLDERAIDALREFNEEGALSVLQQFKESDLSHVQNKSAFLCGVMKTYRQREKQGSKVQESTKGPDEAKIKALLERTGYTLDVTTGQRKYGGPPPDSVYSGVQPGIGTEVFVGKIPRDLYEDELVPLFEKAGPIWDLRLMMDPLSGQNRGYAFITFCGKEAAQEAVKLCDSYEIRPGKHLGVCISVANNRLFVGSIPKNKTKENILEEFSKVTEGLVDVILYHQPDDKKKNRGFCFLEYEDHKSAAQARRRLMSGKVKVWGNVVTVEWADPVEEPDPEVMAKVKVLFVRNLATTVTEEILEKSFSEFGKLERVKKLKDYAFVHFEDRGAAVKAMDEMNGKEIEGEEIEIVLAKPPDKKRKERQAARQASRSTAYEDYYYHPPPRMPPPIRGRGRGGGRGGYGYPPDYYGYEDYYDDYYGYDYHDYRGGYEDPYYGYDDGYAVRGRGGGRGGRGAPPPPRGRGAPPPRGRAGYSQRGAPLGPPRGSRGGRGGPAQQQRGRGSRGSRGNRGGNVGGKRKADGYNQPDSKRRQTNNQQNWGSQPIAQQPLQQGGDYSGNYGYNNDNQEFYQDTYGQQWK
UniProt Q8TB92: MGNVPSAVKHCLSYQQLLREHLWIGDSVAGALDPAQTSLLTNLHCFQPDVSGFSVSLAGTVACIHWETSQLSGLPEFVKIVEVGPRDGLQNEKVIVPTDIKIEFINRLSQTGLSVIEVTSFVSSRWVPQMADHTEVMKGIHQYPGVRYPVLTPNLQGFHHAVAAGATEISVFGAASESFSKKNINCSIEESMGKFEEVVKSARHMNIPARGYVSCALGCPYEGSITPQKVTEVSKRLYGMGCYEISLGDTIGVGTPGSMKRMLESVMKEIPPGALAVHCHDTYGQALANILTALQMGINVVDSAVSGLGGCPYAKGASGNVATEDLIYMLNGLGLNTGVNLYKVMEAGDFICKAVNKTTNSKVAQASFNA
UniProt P48723: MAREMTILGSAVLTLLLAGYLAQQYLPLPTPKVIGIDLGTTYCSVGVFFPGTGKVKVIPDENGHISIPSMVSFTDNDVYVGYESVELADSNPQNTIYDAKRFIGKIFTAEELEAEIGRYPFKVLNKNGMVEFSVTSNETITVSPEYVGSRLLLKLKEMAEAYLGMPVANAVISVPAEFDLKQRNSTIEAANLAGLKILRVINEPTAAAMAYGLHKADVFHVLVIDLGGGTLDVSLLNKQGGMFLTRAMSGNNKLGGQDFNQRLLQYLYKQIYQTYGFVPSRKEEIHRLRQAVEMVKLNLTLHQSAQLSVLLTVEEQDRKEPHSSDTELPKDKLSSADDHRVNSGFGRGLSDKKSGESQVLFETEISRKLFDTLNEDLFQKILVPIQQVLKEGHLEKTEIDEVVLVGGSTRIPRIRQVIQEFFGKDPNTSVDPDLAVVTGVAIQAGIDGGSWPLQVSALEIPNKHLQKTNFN
UniProt Q8NBQ5: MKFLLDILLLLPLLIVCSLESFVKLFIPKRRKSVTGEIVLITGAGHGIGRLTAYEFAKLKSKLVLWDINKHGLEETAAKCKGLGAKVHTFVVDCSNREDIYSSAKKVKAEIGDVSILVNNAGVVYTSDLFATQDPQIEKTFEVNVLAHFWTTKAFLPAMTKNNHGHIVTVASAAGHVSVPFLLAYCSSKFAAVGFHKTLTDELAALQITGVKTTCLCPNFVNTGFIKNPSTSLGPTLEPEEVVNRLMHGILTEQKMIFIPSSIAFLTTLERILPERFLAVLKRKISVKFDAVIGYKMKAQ

filanesib = compound: CON(C)C(=O)N1N=C(c2cc(F)ccc2F)S[C@@]1(CCCN)c1ccccc1 [filanesib]
Method in brief: as §1

zotarolimus = compound: CO[C@H]1C[C@@H]2CC[C@@H](C)[C@@](O)(O2)C(=O)C(=O)N2CCCC[C@H]2C(=O)O[C@H]([C@H](C)C[C@@H]2CC[C@H](n3cnnn3)[C@H](OC)C2)CC(=O)[C@H](C)/C=C(\C)[C@@H](O)[C@@H](OC)C(=O)[C@H](C)C[C@H](C)/C=C/C=C/C=C/1C [zotarolimus]
Method in brief: as §1

idasanutlin = compound: COc1cc(C(=O)O)ccc1NC(=O)[C@@H]1N[C@@H](CC(C)(C)C)[C@](C#N)(c2ccc(Cl)cc2F)[C@H]1c1cccc(Cl)c1F [idasanutlin]
Method in brief: as §1

alisertib = compound: COc1cc(Nc2ncc3c(n2)-c2ccc(Cl)cc2C(c2c(F)cccc2OC)=NC3)ccc1C(=O)O [alisertib]
Method in brief: as §1

[2] = compound: COc1cc2nc(-c3cc(F)ccc3O)nc(N[C@@H]3CNC[C@H]3C(C)(C)O)c2cc1OC
Method in brief: as §1

gefitinib = compound: COc1cc2ncnc(Nc3ccc(F)c(Cl)c3)c2cc1OCCCN1CCOCC1 [gefitinib]
Method in brief: as §1

[3] = compound: COc1cccc2cc(-c3nc([C@H]4CC[C@H](C(=O)O)CC4)n4ncnc(N)c34)[nH]c12
Method in brief: as §1

lapatinib = compound: CS(=O)(=O)CCNCc1ccc(-c2ccc3ncnc(Nc4ccc(OCc5cccc(F)c5)c(Cl)c4)c3c2)o1 [lapatinib]
Method in brief: as §1

pictilisib = compound: CS(=O)(=O)N1CCN(Cc2cc3nc(-c4cccc5[nH]ncc45)nc(N4CCOCC4)c3s2)CC1 [pictilisib]
Method in brief: as §1

Measured: log2 fold change

HSPA5 (UniProt P11021)
inactive: [1] -0.085 | filanesib -0.038 | zotarolimus -0.007 | idasanutlin 0.013 | alisertib -0.059 | [2] -0.022 | gefitinib 0.042 | [3] 0.006 | lapatinib -0.003 | pictilisib -0.035

HMGN4 (UniProt O00479)
inactive: [1] -0.222 | filanesib -0.313 | zotarolimus 0.056 | idasanutlin 0.074 | alisertib -0.395 | [2] -0.139 | gefitinib -0.197 | [3] -0.415 | lapatinib 0.292 | pictilisib -0.57

HKDC1 (UniProt Q2TB90)
inactive: [1] -0.089 | filanesib -0.052 | zotarolimus -0.018 | idasanutlin -0.089 | alisertib -0.044 | [2] 0.062 | gefitinib 0.026 | [3] 0.113 | lapatinib -0.03 | pictilisib -0.05

HGH1 (UniProt Q9BTY7)
inactive: [1] -0.046 | filanesib 0.104 | zotarolimus 0.113 | idasanutlin -0.086 | alisertib -0.023 | [2] -0.006 | gefitinib 0.026 | [3] -0.109 | lapatinib 0.022 | pictilisib -0.193

ICAM1 (UniProt P05362)
inactive: [1] -0.018 | filanesib 0.132 | zotarolimus -0.038 | idasanutlin 0.042 | alisertib 0.002 | [2] 0.08 | gefitinib 0.029 | [3] 0.104 | lapatinib -0.028 | pictilisib 0

HMGN2 (UniProt P05204)
inactive: [1] 0.01 | filanesib -0.043 | zotarolimus -0.048 | idasanutlin 0.041 | alisertib -0.028 | [2] 0.073 | gefitinib 0.046 | [3] 0.09 | lapatinib -0.051 | pictilisib -0.264

HSPA1A (UniProt P0DMV8)
inactive: [1] -0.017 | filanesib 0.029 | zotarolimus 0.05 | idasanutlin 0.061 | alisertib -0.104 | [2] -0.011 | gefitinib 0.03 | [3] -0.001 | lapatinib -0.021 | pictilisib -0.106

HNRNPUL1 (UniProt M0R247)
inactive: [1] -0.028 | filanesib 0.029 | zotarolimus -0.468 | idasanutlin 0.277 | [2] 0.117 | gefitinib 0.1 | lapatinib -0.15

HS1BP3 (UniProt Q53T59)
inactive: [1] 0.032 | filanesib -0.085 | zotarolimus 0.02 | idasanutlin 0.039 | [2] 0.087 | gefitinib -0.196 | lapatinib 0.118

HRC (UniProt P23327)
inactive: [1] -0.089 | filanesib 0.019 | zotarolimus -0.032 | idasanutlin 0.035 | alisertib -0.059 | [2] -0.008 | gefitinib 0.035 | [3] -0.007 | lapatinib -0.039 | pictilisib 0.017

Random excerpt: 2 records from the list
HSPA1A (UniProt P0DMV8)
inactive: [1] -0.017 | filanesib 0.029 | zotarolimus 0.05 | idasanutlin 0.061 | alisertib -0.104 | [2] -0.011 | gefitinib 0.03 | [3] -0.001 | lapatinib -0.021 | pictilisib -0.106

HS1BP3 (UniProt Q53T59)
inactive: [1] 0.032 | filanesib -0.085 | zotarolimus 0.02 | idasanutlin 0.039 | [2] 0.087 | gefitinib -0.196 | lapatinib 0.118

Next part

HUWE1 (UniProt Q7Z6Z7)
inactive: [1] -0.001 | filanesib -0.007 | zotarolimus 0.037 | idasanutlin -0.077 | alisertib -0.073 | [2] -0.023 | gefitinib -0.014 | [3] -0.031 | lapatinib 0.021 | pictilisib -0.031

HIC2 (UniProt Q96JB3)
inactive: [1] -0.067 | filanesib 0.226 | zotarolimus -0.012 | idasanutlin 0.238 | alisertib -0.057 | [2] -0.386 | gefitinib -0.073 | [3] -0.066 | lapatinib 0.207 | pictilisib -0.052

HNRNPA1 (UniProt H0YH80)
inactive: [1] -0.035 | filanesib 0.526 | zotarolimus -0.143 | idasanutlin 0.032 | alisertib -0.288 | gefitinib -0.016 | [3] -0.125 | pictilisib -0.122

HLA-E (UniProt P13747)
inactive: [1] -0.313 | filanesib -0.042 | zotarolimus 0.075 | idasanutlin -0.065 | [2] 0.008 | lapatinib 0.029 | pictilisib -0.065

HNRNPL (UniProt P14866)
inactive: [1] -0.17 | filanesib 0.15 | zotarolimus -0.011 | idasanutlin 0.522 | alisertib 0.022 | [2] -0.14 | [3] 0.042 | lapatinib 0.156 | pictilisib -0.119

ICMT (UniProt O60725)
inactive: [1] -0.083 | filanesib -0.189 | idasanutlin -0.029 | alisertib -0.046 | [2] -0.112 | gefitinib 0.154 | [3] 0.085 | lapatinib 0.206

HNRNPR (UniProt O43390)
inactive: [1] -0.083 | filanesib 0.034 | zotarolimus 0.156 | alisertib -0.293 | [2] -0.082 | gefitinib -0.042 | [3] -0.103 | lapatinib 0.129

HMGCLL1 (UniProt Q8TB92)
inactive: [1] -0.206 | filanesib 0.003 | zotarolimus 0.001 | idasanutlin 0.035 | alisertib 0.016 | gefitinib 0.026 | [3] 0.073 | pictilisib 0.008

HNRNPH1 (UniProt P31943)
inactive: [1] 0.069 | filanesib 0 | zotarolimus 0.091 | idasanutlin 0.048 | alisertib 0.028 | [2] -0.192 | gefitinib -0.015 | [3] 0.068 | lapatinib 0.046 | pictilisib -0.135

ICAM2 (UniProt P13598)
inactive: [1] 0.012 | filanesib 0.026 | zotarolimus -0.012 | idasanutlin 0.094 | alisertib -0.056 | [2] -0.069 | gefitinib 0.019 | [3] 0.038 | lapatinib -0.024 | pictilisib 0.028

HMBS (UniProt F5H226)
inactive: [1] -0.04 | filanesib 0.075 | zotarolimus -0.138 | alisertib 0.844 | [3] -0.005 | pictilisib 0.048

HSPA8 (UniProt E9PK54)
inactive: [1] 0.011 | filanesib 0.033 | zotarolimus -0.015 | idasanutlin -0.037 | alisertib -0.186 | [2] -0.208 | gefitinib -0.077 | [3] -0.002 | lapatinib 0.17 | pictilisib -0.071

HSPA13 (UniProt P48723)
inactive: [1] -0.012 | filanesib 0.023 | zotarolimus 0.059 | idasanutlin -0.056 | alisertib 0.001 | [2] -0.001 | gefitinib 0.021 | [3] 0 | lapatinib 0.023 | pictilisib -0.064

HSD17B11 (UniProt Q8NBQ5)
inactive: [1] -0.022 | filanesib -0.058 | zotarolimus 0.003 | idasanutlin -0.031 | alisertib -0.033 | [2] 0.093 | gefitinib 0.011 | [3] 0.041 | lapatinib 0.023 | pictilisib 0.008

HSP90AB4P (UniProt Q58FF6)
inactive: [1] -0.124 | filanesib -0.004 | zotarolimus 0.094 | idasanutlin -0.398 | alisertib 0.099 | gefitinib 0.051 | [3] -0.001

Reference: the supplement of paper PMC10849652
